Reference: PMC6731061
No constants are given. Whether binding was seen depends on the method and setting.

The chains behind the UniProt entries cited, without tags or fusion partners. Residues count along the entry.
UniProt Q06685, residues 188-1088: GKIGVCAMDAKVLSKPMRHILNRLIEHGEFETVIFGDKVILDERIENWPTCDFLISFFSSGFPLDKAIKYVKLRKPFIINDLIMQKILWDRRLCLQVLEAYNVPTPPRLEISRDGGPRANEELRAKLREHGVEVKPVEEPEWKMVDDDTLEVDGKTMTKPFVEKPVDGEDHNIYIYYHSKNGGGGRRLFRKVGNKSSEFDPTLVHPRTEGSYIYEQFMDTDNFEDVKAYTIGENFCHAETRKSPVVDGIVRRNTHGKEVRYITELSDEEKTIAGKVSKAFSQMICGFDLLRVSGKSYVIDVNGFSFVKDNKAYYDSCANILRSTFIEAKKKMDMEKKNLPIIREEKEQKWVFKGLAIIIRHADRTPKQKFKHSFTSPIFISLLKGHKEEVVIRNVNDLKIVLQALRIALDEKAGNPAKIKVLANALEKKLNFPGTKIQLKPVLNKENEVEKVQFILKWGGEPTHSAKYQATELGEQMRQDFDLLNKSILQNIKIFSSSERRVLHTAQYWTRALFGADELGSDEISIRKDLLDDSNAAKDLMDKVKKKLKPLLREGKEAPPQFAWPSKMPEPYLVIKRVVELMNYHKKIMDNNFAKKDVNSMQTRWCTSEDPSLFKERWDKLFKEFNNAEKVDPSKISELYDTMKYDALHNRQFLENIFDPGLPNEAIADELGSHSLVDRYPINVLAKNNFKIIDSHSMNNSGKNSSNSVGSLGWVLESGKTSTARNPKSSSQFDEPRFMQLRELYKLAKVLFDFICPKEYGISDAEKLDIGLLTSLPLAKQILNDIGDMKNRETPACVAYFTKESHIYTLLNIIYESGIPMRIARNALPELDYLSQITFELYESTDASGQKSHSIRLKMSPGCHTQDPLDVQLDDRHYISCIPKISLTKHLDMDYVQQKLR

Target: Saccharomyces cerevisiae Vip1 (residues 188-1088) (S. cerevisiae) (UniProt Q06685)
Assay: SEC; Superdex 200 column (HiLoad 26/600 or increase 10/300 GL), 150 mM NaCl, 20 mM HEPES pH 7.0; both purified

binding: no binding
Substance: Saccharomyces cerevisiae Vip1 (residues 188-1088) (from UniProt Q06685 188-1088) (enzyme)
